In the supplement of paper PMC12819154, “High-throughput peptide-centric local stability assay extends protein–ligand identification to membrane proteins, tissues and bacteria” (Nature Structural & Molecular Biology, 2025):
The list shows a part of the results. Most values lie at the level of the controls, where differences are scatter.

The chains behind the UniProt entries cited, without tags or fusion partners. Where a name states a change or a piece, a line headed by the entry shows the natural chain unless it says otherwise.
UniProt P70353: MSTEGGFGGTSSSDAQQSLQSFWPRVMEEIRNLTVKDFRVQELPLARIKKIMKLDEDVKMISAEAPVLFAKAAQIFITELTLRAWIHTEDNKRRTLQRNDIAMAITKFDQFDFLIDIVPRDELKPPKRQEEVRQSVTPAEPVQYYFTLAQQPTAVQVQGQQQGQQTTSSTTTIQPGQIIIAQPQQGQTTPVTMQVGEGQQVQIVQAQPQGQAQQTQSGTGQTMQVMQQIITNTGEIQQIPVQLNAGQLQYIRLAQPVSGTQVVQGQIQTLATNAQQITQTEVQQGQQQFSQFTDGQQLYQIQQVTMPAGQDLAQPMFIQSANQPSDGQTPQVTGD
UniProt P97290: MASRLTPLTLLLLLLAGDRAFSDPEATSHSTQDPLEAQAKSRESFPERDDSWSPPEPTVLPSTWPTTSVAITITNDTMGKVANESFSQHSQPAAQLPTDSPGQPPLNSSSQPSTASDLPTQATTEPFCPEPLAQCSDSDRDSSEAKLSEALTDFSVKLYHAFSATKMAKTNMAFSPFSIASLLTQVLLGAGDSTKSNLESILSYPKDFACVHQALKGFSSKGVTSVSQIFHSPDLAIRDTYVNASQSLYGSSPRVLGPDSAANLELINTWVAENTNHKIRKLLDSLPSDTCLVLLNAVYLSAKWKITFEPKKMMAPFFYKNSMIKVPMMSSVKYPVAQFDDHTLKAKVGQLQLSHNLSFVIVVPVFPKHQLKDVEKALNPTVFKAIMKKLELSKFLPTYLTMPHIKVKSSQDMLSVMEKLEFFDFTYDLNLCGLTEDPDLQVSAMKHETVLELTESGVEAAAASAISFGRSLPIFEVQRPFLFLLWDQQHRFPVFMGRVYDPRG
UniProt P62075: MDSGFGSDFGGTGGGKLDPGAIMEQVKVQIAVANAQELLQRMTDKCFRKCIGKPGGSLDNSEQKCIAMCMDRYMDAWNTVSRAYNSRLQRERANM
UniProt P62774, whole entry: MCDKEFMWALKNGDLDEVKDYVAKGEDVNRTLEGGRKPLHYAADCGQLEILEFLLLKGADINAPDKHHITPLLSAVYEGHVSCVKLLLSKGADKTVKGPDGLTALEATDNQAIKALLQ
UniProt P59034: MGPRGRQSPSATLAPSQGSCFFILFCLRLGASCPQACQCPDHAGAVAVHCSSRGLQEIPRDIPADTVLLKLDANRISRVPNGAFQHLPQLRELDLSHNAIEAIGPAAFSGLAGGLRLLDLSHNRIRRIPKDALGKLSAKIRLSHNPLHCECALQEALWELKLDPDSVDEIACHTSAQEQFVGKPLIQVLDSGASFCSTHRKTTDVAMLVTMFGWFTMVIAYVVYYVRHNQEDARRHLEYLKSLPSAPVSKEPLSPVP
UniProt P56695: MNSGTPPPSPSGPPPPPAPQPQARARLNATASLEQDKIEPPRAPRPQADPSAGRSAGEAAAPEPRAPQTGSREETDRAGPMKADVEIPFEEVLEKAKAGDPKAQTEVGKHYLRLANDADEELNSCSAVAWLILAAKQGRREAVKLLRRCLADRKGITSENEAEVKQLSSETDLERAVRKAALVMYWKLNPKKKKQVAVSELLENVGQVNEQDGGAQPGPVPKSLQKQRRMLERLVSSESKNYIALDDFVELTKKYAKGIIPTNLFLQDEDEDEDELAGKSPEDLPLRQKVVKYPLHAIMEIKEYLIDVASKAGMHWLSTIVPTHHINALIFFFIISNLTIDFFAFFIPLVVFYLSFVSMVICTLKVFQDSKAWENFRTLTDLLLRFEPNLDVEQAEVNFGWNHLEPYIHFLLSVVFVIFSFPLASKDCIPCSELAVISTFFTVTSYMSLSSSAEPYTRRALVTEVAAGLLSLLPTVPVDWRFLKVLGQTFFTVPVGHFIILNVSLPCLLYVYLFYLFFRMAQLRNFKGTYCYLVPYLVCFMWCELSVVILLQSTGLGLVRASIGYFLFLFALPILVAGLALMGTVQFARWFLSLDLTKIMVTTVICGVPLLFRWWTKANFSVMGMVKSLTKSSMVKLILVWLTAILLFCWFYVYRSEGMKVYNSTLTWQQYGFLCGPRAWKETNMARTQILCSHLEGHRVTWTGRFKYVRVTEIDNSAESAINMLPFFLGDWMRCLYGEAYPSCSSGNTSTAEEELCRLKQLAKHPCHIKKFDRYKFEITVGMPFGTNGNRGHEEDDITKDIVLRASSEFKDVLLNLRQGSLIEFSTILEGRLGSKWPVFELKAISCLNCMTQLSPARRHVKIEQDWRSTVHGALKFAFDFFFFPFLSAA
UniProt P61022: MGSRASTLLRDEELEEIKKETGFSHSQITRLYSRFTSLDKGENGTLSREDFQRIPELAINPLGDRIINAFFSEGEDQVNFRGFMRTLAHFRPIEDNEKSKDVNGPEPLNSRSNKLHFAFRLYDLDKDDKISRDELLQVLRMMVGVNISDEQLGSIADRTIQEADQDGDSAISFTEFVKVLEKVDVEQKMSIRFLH
UniProt P59808: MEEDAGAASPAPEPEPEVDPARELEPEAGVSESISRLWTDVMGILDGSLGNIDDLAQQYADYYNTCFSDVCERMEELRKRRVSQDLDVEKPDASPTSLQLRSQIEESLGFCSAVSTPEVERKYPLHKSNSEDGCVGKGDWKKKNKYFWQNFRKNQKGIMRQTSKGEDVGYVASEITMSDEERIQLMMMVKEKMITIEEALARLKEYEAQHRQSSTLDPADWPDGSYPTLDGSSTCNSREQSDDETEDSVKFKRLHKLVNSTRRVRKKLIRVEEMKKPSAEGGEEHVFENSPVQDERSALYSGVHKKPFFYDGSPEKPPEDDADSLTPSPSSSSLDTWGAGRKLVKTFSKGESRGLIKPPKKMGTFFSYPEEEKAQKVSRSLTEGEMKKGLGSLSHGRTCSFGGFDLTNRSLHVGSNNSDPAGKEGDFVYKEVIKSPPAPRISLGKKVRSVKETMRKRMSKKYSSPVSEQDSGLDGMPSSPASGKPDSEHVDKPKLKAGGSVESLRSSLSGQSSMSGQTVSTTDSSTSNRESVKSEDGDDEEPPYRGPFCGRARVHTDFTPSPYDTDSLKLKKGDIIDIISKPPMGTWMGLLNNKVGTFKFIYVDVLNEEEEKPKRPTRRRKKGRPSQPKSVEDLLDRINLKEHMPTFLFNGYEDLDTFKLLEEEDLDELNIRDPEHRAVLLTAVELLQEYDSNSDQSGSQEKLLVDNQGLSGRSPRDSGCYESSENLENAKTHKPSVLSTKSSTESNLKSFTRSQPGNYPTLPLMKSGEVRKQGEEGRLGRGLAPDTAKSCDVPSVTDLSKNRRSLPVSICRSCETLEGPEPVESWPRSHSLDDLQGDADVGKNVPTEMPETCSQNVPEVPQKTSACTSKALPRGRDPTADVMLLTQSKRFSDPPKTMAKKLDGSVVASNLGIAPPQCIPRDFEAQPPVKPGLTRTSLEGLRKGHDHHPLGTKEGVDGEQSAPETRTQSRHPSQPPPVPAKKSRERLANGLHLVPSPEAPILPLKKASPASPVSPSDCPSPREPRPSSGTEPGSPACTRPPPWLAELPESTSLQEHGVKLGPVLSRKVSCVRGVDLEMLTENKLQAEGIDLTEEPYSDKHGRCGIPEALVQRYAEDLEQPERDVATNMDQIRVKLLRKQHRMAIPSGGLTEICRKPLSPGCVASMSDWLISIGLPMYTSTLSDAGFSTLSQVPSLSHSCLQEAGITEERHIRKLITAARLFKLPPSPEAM
UniProt P97371: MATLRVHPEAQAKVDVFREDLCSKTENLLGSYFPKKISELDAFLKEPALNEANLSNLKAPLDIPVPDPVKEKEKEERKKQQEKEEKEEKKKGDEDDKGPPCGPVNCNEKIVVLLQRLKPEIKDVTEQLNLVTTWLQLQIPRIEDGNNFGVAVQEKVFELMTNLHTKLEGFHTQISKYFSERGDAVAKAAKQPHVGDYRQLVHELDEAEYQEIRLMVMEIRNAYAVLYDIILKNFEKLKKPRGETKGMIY
UniProt P63002: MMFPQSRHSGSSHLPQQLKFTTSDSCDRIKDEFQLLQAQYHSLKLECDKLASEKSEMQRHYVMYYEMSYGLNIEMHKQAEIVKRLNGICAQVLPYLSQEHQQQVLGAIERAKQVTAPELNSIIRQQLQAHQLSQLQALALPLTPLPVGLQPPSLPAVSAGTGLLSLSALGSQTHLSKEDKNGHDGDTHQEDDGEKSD
UniProt P80315: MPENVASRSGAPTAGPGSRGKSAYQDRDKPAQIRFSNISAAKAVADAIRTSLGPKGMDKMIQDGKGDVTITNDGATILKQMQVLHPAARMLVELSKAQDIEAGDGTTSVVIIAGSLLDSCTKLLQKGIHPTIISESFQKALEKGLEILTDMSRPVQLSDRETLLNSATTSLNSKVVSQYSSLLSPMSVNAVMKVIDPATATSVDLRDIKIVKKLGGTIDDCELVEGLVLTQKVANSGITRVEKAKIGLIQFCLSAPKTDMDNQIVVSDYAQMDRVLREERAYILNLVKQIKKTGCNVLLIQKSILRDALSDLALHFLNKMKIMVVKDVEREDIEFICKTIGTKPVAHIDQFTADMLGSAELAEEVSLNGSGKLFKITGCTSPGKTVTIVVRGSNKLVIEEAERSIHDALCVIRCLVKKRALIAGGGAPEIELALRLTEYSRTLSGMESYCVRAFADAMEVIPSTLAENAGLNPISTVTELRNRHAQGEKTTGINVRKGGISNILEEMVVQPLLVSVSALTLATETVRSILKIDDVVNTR
UniProt P59235: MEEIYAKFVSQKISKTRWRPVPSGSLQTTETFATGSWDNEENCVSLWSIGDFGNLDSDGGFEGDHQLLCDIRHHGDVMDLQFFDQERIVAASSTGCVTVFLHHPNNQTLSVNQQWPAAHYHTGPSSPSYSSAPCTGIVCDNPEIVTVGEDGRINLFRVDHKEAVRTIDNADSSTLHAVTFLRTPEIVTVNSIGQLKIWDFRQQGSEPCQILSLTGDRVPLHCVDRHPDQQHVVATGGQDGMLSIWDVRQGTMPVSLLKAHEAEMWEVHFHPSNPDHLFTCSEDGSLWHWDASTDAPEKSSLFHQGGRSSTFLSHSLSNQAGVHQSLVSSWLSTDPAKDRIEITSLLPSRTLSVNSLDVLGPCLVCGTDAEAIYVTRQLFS
UniProt P97765: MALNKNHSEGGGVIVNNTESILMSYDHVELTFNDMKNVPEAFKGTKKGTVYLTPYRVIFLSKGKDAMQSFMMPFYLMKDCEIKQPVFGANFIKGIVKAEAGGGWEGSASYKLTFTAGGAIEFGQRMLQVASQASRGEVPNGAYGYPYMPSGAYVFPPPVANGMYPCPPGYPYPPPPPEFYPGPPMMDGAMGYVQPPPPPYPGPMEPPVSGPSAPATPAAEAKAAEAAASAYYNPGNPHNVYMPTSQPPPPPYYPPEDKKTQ
UniProt P63254: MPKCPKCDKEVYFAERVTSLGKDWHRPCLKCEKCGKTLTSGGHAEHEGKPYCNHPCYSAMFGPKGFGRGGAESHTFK
UniProt P58021: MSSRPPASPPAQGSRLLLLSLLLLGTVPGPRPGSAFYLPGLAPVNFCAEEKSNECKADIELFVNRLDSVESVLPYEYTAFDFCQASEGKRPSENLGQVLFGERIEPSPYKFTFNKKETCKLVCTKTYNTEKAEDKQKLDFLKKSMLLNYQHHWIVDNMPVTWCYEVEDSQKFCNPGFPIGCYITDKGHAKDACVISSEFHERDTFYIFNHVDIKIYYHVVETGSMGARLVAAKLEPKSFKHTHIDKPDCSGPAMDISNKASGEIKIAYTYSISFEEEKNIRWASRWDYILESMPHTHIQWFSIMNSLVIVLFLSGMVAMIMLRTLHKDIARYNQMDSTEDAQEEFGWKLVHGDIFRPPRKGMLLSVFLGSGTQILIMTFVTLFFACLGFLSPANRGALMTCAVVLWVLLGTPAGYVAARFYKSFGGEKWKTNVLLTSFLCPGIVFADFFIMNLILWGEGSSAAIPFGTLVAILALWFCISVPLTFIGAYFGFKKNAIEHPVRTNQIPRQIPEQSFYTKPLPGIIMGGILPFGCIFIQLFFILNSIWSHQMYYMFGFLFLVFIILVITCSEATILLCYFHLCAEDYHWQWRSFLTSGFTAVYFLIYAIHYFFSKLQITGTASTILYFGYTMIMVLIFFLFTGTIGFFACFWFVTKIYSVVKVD
UniProt P70389: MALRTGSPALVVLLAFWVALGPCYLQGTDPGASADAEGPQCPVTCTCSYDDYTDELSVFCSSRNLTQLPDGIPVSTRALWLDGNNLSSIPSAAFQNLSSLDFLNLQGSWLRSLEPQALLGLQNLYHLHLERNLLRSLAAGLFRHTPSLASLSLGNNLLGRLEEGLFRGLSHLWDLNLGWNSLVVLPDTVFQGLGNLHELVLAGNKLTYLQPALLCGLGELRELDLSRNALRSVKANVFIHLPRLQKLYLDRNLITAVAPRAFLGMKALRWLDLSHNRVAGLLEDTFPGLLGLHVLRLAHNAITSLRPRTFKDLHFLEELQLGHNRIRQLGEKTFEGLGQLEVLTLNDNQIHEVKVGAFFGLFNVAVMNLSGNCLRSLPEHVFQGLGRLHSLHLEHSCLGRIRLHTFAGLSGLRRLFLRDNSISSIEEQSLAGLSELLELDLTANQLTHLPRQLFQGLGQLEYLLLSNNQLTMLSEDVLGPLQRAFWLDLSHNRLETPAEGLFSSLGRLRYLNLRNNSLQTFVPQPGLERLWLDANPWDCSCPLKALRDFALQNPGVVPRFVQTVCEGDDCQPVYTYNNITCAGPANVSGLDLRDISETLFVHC

Compound: CN[C@@H]1C[C@H]2O[C@@](C)([C@@H]1OC)n1c3ccccc3c3c4c(c5c6ccccc6n2c5c31)C(=O)NC4 [staurosporine]
Assay: log2 fold change of pooled soluble protein (PISA), ligand vs vehicle (log2 ratio); higher = more thermally stabilized
Conditions: ligand concentration: 20 uM; assay format: PISA pool 52.9/55.5/58.6 C

UniProt P70353
log2 fold change of pooled soluble protein: -0.202

UniProt P97290
log2 fold change of pooled soluble protein: 0.0532

UniProt P70398
log2 fold change of pooled soluble protein: -0.0659

UniProt P62075
log2 fold change of pooled soluble protein: -0.0134

UniProt P97314
log2 fold change of pooled soluble protein: -0.0276

UniProt P97471
log2 fold change of pooled soluble protein: 0.034

UniProt P62774
log2 fold change of pooled soluble protein: 0.176

UniProt P59729
log2 fold change of pooled soluble protein: 0.193

UniProt P59034
log2 fold change of pooled soluble protein: 0.00613

UniProt P97352
log2 fold change of pooled soluble protein: 0.254

UniProt P62137
log2 fold change of pooled soluble protein: 0.00679

UniProt P70302
log2 fold change of pooled soluble protein: 0.0656

UniProt P56695
log2 fold change of pooled soluble protein: -0.521

UniProt P61022
log2 fold change of pooled soluble protein: 0.0506

UniProt P97360
log2 fold change of pooled soluble protein: -0.0548

UniProt P59808
log2 fold change of pooled soluble protein: -0.0932

UniProt P70336
log2 fold change of pooled soluble protein: 0.594

UniProt P97371
log2 fold change of pooled soluble protein: 0.0755

UniProt P58137
log2 fold change of pooled soluble protein: 0.0313

UniProt P97379
log2 fold change of pooled soluble protein: 0.051

UniProt P70333
log2 fold change of pooled soluble protein: 0.105

UniProt P63002
log2 fold change of pooled soluble protein: -0.589

UniProt P97370
log2 fold change of pooled soluble protein: 0.0239

UniProt P83093
log2 fold change of pooled soluble protein: -0.0362

UniProt P80315
log2 fold change of pooled soluble protein: -0.018

UniProt P59242
log2 fold change of pooled soluble protein: -0.0721

UniProt P59235
log2 fold change of pooled soluble protein: 0.0436

UniProt P97765
log2 fold change of pooled soluble protein: -0.0233

UniProt P70207
log2 fold change of pooled soluble protein: -0.158

UniProt P56873
log2 fold change of pooled soluble protein: -0.0305

UniProt P70387
log2 fold change of pooled soluble protein: -0.078

UniProt P97447
log2 fold change of pooled soluble protein: -0.0451

UniProt P63328
log2 fold change of pooled soluble protein: -0.0989

UniProt P63254
log2 fold change of pooled soluble protein: 0.165

UniProt P58021
log2 fold change of pooled soluble protein: -0.343

UniProt P58252
log2 fold change of pooled soluble protein: -0.0237

UniProt P70389
log2 fold change of pooled soluble protein: 0.154
